Data from PubChem BioAssay AID504834 (National Center for Advancing Translational Sciences (NCATS), 2011).
Hit rate of the full screen: of about 320,000 compounds, about 22,000 (6.9%) were called active. Inconclusive results, whose numbers are uncertain, are shown with a selection of clear calls. The call rests on the fitted dose curve; in most records, active means well fitted inhibition curve with a large enough effect; inconclusive means small, poorly fitted or top-dose-only effect, or another doubt; inactive means no such curve, though single readings can be large or run the other way. Where the call is inconclusive, the potency comes from a doubtful curve fit.

Assay: Primary qHTS for delayed death inhibitors of the malarial parasite plastid, 96 hour incubation
Details: P. falciparum luciferase reporter growth; series mostly up to 28.7 µM; activity change, negative = inhibition: at the top concentration
How it was run: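 Parasite growth measured via integrated firefly luciferase reporter in P. falciparum. Infected erythrocytes at 2% hematocrit, 0.05% parasitemia final were treated 96 hours at 37 C under 5% CO2, and luminescence was read.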
On the % scale 0 is the no-effect control and ±100 the full control effect; potency means the concentration at half of the fitted maximal effect.

Row | SMILES | Potency | activity change, negative = inhibition
1 | COCCC(=O)N1CCCC(C(=O)c2ccc(Oc3ccccc3)cc2)C1 (configuration not stated) | inconclusive: 11.7 µM [inhibitor, partial curve, poor fit] | 
2 | COc1cccc(Nc2ccccc2C(=O)O)c1 | inconclusive: 18.5 µM [inhibitor, single point] | 
3 | N#Cc1ccccc1Cn1cc(C(=O)c2ccccc2F)c2ccccc21 |  | inactive: 38.3%
4 | CC(C)(C)NC(=O)CSc1nc2ccc(NC(=O)CSc3nnc(N)s3)cc2s1 | inconclusive: 7.38 µM [inhibitor, partial curve, poor fit] | 
5 | CCCN1C(=O)c2cc(C(=O)NCc3ccc(OC)cc3)ccc2C1O (configuration not stated) | inconclusive: 18.5 µM [inhibitor, single point] | 
6 | COC(=O)C1C(O)C(C)C(O)C(C)/C=C\C=C(/C)C(=O)Nc2c(C)c(OC(C)=O)c3c(c2O)C(=O)C(C)=C2OCOC(=C23)/C(C)=C/C(C)(O)C(O)C(C)C1O (configuration not stated) | active: 9.28 µM | 
7 | Cc1cc(OCC(=O)NNC(=O)c2cccnc2)cc(C)c1Cl | inconclusive: 18.5 µM [inhibitor, single point] | 
8 | CCOc1ccc(NC(=O)CN(C)C(=O)c2cc(-c3ccncc3)nc3ccccc23)cc1OCC | inconclusive: 14.7 µM [inhibitor, single point] | 
9 | Nc1nc(Nc2cccc(Cl)c2)nc(NCc2ccco2)c1[N+](=O)[O-] | inconclusive: 10.4 µM [inhibitor, single point] | 
10 | O=C(NCCN1CCCCC1)c1ccc(/C=N/O)nc1 | inconclusive: 7.38 µM [inhibitor, single point] | 
11 | Cc1ccccc1C(=O)NN1C(=O)CSC1=S |  | inactive: -1.24%
12 | CCn1ncc(S(=O)(=O)Nc2cc(Cl)ccc2C)c1C | inconclusive: 4.15 µM [inhibitor, single point] | 
13 | Fc1cc(F)cc(Nc2nc(Cl)nc(NC3CCCC3)n2)c1 | inconclusive: 16.5 µM [inhibitor, single point] | 
14 | CC(CCc1ccccc1)NC(=O)CCCn1ncn2c(cc3occc32)c1=O (configuration not stated) | inconclusive: 5.22 µM [inhibitor, partial curve] | 
15 | CCNC(=S)N(CCc1c(C)[nH]c2ccc(C)cc12)Cc1ccco1 | inconclusive: 18.5 µM [inhibitor, single point] | 
16 | CC(=O)c1ccc(OCC(=O)Nc2ccc(N3CCCCC3)cc2)cc1 | inconclusive: 18.5 µM [inhibitor, partial curve, poor fit] | 
17 | Cc1cc(C)cc(C(=O)OCC(=O)NCCNC(=O)COC(=O)c2cc(C)cc(C)c2)c1 | inconclusive: 10.4 µM [inhibitor, single point] | 

Two entries picked at random from those above:
Row | SMILES | Potency | activity change, negative = inhibition
17 | Cc1cc(C)cc(C(=O)OCC(=O)NCCNC(=O)COC(=O)c2cc(C)cc(C)c2)c1 | inconclusive: 10.4 µM [inhibitor, single point] | 
11 | Cc1ccccc1C(=O)NN1C(=O)CSC1=S |  | inactive: -1.24%
